We go through three molecules from article PMC13546301.

Protein sequences, listed by entry. Tags and fused reporters are not part of them. Lines headed by an entry give the natural chain unless they say otherwise; changes in a name come on top. Residues count along the entry.
UniProt P61215: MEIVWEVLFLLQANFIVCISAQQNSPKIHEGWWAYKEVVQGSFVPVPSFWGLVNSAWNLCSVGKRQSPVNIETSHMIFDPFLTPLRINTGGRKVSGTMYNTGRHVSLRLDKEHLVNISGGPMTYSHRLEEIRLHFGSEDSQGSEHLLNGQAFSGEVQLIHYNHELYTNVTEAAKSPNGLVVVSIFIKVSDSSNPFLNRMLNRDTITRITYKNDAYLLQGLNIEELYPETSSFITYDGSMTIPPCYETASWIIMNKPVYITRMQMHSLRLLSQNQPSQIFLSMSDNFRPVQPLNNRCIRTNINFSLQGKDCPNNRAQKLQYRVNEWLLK
UniProt B0V2N1, residues 30-1907: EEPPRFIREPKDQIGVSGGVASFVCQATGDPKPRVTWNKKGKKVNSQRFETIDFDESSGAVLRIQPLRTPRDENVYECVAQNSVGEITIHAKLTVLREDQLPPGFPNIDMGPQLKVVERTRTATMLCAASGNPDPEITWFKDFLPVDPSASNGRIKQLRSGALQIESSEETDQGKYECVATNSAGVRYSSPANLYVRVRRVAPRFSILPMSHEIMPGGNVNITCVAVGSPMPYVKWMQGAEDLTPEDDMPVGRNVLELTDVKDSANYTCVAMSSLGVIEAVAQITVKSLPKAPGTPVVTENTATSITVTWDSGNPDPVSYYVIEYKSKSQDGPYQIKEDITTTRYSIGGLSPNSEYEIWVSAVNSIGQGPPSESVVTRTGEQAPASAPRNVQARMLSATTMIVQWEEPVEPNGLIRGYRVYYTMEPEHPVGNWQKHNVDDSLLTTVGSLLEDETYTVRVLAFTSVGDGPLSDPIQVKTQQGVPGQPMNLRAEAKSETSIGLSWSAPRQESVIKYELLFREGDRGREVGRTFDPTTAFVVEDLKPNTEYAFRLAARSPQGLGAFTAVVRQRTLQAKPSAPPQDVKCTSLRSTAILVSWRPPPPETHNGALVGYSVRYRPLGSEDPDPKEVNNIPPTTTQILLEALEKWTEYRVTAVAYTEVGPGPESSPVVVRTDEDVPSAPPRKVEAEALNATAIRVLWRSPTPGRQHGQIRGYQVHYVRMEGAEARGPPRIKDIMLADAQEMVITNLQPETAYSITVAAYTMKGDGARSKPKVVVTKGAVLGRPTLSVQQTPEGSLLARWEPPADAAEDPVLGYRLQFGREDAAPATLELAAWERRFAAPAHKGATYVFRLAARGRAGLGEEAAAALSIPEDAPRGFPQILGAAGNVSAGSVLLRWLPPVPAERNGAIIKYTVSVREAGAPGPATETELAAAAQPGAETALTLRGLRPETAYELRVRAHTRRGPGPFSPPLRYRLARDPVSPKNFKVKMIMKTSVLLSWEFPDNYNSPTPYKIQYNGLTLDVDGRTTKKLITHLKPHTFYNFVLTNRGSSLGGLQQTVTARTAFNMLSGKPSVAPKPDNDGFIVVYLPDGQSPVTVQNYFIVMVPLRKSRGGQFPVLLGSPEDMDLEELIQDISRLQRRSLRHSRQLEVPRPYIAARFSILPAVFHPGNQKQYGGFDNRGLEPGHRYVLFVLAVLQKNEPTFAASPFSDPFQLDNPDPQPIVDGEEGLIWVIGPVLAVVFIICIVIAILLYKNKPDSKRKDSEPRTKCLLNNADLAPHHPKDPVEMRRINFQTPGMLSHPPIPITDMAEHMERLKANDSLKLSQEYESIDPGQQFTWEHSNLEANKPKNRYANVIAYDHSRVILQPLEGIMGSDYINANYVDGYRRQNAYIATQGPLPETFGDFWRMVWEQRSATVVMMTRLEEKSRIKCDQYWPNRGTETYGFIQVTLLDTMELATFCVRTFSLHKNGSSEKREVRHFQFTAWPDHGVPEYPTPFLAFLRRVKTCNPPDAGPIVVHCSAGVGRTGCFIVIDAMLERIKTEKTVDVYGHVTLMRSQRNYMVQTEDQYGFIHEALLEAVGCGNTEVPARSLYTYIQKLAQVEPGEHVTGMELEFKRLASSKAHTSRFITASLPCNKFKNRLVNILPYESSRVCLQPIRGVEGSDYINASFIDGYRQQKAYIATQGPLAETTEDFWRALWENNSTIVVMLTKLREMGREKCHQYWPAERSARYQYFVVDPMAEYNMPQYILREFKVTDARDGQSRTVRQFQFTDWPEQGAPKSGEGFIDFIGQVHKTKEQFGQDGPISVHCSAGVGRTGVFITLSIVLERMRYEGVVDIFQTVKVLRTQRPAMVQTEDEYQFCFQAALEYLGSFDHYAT

Assay [1] has as its target Carbonic anhydrase-related protein 10 (mouse (endogenous in mouse brain)) (UniProt P61215). As to the kind of experiment: affinity purification with mass spectrometry; reverse meAP-MS with 1-4 antibodies per target against constituents of the NRX interactome (PTPRS, T178B, CAH10, NXPH3, TAFA1, LRRT4, anti-HA for HA-Cbln1/2 and others); solubilised mouse brain membrane fractions; target knock-outs, wild-type brains or IgGs as controls, tnR threshold 0.25.

The target in assay [2] is Receptor-type tyrosine-protein phosphatase S (mouse (endogenous in mouse brain)) (UniProt B0V2N1). Described as above.

These are yes or no findings as the source states them, for the method shown. In cells and extracts the contact can be indirect. These calls come from enrichment with a bait or labelling near it, and not all partners need be listed.

B1: NOE3 (protein, UniProt P63056 24-478)
chain: QTLPSLVGLNTTRLSAPDTLTQISPKEGWQVYSSAQDPDGRCICTVVAPEQNLCSRDAKSRQLRQLLEKVQNMSQSIEVLNLRTQRDFQYVLKMETQMKGLKAKFRQIEDDRKTLMTKHFQELKEKMDELLPLIPVLEQYKTDAKLITQFKEEIRNLSSVLTGIQEEIGAYDYEELHQRVLSLETRLRDCMKKLTCGKLMKITGPITVKTSGTRFGAWMTDPLASEKNNRVWYMDSYTNNKIVREYKSIADFVSGAESRTYNLPFKWAGTNHVVYNGSLYFNKYQSNIIIKYSFDLGRVLAQRSLEYAGFHNVYPYTWGGFSDIDLMADEIGLWAVYATNQNAGNIVISQLNQDTLEVMKSWSTGYPKRSAGESFMICGTLYVTNSHLTGAKVYYSYSTKTSTYEYTDIPFHNQYFHISMLDYNARDRALYAWNNGHQVLFNVTLFHIIKTEDDT
As to B1, the binding entry in assay [1] and in assay [2] was “binds” each time.

B2: SHSA7 (protein, UniProt Q8C3Q5 23-558)
chain: RPSNDTSSVAPGPLPALLAHLRRLTGALAGGGSAAGTSANATKTSPASGTGAAARAPPPAELCHGYYDVMGQYDATFNCSTGSYRFCCGTCHYRFCCEHRHMRLAQASCSNYDTPRWATTPPPLAGGAGGAGGAGGGPGPGQAGWLEGGRAGGAGGRGGEGPGGSTAYVVCGVISFALAVGVGAKVAFSKASRAPRAHREINVPRALVDILRHQAGPATRPDRARSSSLTPGLGGPDSMAPRTPKNLYNTMKPSNLDNLHYNVNSPKHHAATLDWRAMPPPSPSLHYSTLSCSRSFHNLSHLPPSYEAAVKSELNRYSSLKRLAEKDLDEAYLKRRQLEMPRGTLPLHALRRPGTGGGYRMDGWGGPEELGLAPAPNPRRVMSQEHLLGDGSRASRYEFTLPRARLVSQEHLLLSSPEALRQSREHLLSPPRSPALPPDPTTRASLAASHSNLLLGPGGPPTPLHGLPPSGLHAHHHHALHGSPQPAWMSDAGGGGGTLARRPPFQRQGTLEQLQFIPGHHLPQHLRTASKNEVTV
With B2, the binding entry in assay [1] and in assay [2] was “binds” throughout.

B3: Leucine-rich repeat transmembrane neuronal protein 1 (protein, UniProt Q8K377 35-522)
chain: APSGCPGQCRCEGRLLYCEALNLTEAPHNLSGLLGLSLRYNSLSELRAGQFTGLMQLTWLYLDHNHICSVQGDAFQKLRRVKELTLSSNQITELANTTFRPMPNLRSVDLSYNKLQALAPDLFHGLRKLTTLHMRANAIQFVPVRIFQDCRSLKFLDIGYNQLKSLARNSFAGLFKLTELHLEHNDLIKVNFAHFPRLISLHSLCLRRNKVAIVVSSLDWVWNLEKMDLSGNEIEYMEPHVFETVPYLQTLQLDSNRLTYIEPRILNSWKSLTSITLAGNLWDCGRNVCALASWLSNFQGRYDANLQCASPEYAQGEDVLDAVYAFHLCEDGAEPTSGHLLSVAVTNRSDLTPPESSATTLVDGGEGHDGTFEPITVALPGGEHAENAVQIHKVVTGTMALIFSFLIVVLVLYVSWKCFPASLRQLRQCFVTQRRKQKQKQTMHQMAAMSAQEYYVDYKPNHIEGALVIINEYGSCTCHQQPARECEV
For the molecule B3, the binding entry in assay [1] and in assay [2] was “binds” each time.
